Some of the results follow.
B1: il10ra_site1_normal_mot_HHH_b1_02004_000000220_0001_1_19_H_._HHH_b2_04613_af2_0001_0000200009_0000001_0 (protein)
chain: SSSSTDEEFELVKELVKRASELAENGNPEEAEKLLEEAERLAEESNNEALRFSVEHALRLLSSSS
B2: il10ra_site1_sap_24_mot_HHH_b1_04100_af2_000000180_0001_1_19_H_._HHH_b2_06464_af2_0001_0000100002_0000002_0_0001_af2pred_dldesign_0_af2pred (protein)
chain: SSSSSDRAVARASIRYSLEAAKELEDEEARKLCIDQALKDAEALEDAELVAEVEAFRKEISSSSS
B3: il10ra_site1_normal_mot_HHH_b2_07245_000000008_0001_1_20_H_._HHH_b1_07746_0001_0000100004_0000001_1 (protein)
chain: SSSSSDEREEEARELLEEAKHIDDPRERIRVLLEALQLAYEANNRELLEEIWRVIKRLASSSSSS
B4: il10ra_site1_normal_mot_8756ee2cf497b5429c717dfc0c0bcfd6_0001_000000186_0001_1_13_H_._HHH_b2_06757_af2_0001_0000400020_0000001_0_af2pred_0001 (protein)
chain: SSSSSTAQAAQELVRLIREALKIEDEEEAKEVLEEAKELAEENNNLNVLAVLEYLLKLLSSSSSS
B5: il10ra_site1_normal_mot_HHH_b2_06497_000000202_0001_1_20_H_._HHH_b2_07621_af2_0001_0000700020_0000001_0_af2pred_0001 (protein)
chain: SSSSSSREELIREAVKLLHKAARIDDEEEVEELLRKVEEIAEQTNNPLLEHSVEAIKRALSSSSS
B6: il10ra_site1_sap_21_mot_HHH_b1_02397_af2_000000085_0001_39_57_H_._HHH_b2_07560_af2_0001_0000500016_0000001_0_0001 (protein)
chain: SSSSDEHYERLKELIERIVEALRRNDPEKVEELLRELEELIEENNNWSARFALEILEKQLSSSSS
B7: il10ra_site1_normal_mot_HHH_b2_00441_000000147_0001_1_18_H_._HHH_b1_06240_0001_0000100005_0000002_0 (protein)
chain: SSSSDLERYVELALRFVEALLKSGDPEAAELLARAILDVAEQNNNPELVEEIEELLEEVRKSSSS
B8: il10ra_site1_sap_11_mot_HHH_b2_05343_000000235_0001_19_35_H_._HHH_b2_02528_0001_0000100006_0000001_0_0001 (protein)
chain: SSSSSEEVYELLKEAIELLAEGNPEEARKVLEEARELAEEENNQVFRMQIEFLERLIERRSSSSS
B9: il10ra_site1_sap_27_mot_HHH_b1_08697_af2_000000298_0001_1_18_H_._HHH_b1_05552_0001_0000100007_0000001_1_0001 (protein)
chain: SERQRAIRIAFQRSDPEVLHALWELVHALARDPNNEEAREVLRLLIEALEEGDPEKVEEAVELAR
B10: il10ra_site1_normal_mot_HHH_b2_06497_000000202_0001_1_20_H_._HHH_b2_07621_af2_0001_0000700020_0000001_0 (protein)
chain: SSSSSSTRELNEEAYRLLRRAAEIDDEEEVEELLRKVEEIAEQTNNPILEFSVRAIRRALSSSSS
B11: il10ra_site1_sap_17_mot_65b8060e20531850bca9f2e11f97d954_0001_af2_000000137_0001_17_31_H_._HHH_b2_06821_0001_0000800089_0000001_0_0001_af2pred_0001 (protein)
chain: SSSSSSFERLIELSRRALELLRQGDKEEAREVLKEAEELAEELGDLYAEWALEAIERIINSSSSS
B12: il10ra_site1_sap_21_mot_HHH_b2_00886_000000053_0001_41_55_H_._HHH_b2_00886_0001_0000600064_0000001_0_0001 (protein)
chain: SSSSSEEEERVEELLEEAEHVTDPRELSRLLQEAVQLAFEAQNPELLRLVWRVVKKLGEKSSSSS
B13: il10ra_site1_sap_14_mot_HHH_b1_00456_000000263_0001_1_17_H_._HHH_b2_02299_0001_0000100002_0000001_0_0001 (protein)
chain: SSSSSDEEVRELLEEAEEARERGNPEEARRLLLEALRLIFQLRDPELLRQLWELVHKLFSSSSSS
B14: il10ra_site1_normal_mot_HHH_b1_05326_000000242_0001_1_20_H_._HHH_b1_06334_0001_0000100009_0000001_0 (protein)
chain: SSSSDILEEVLELSREAFRALLRGDPERVRELLERMEELLEELNDPAIKKAIENIELALNSSSSS
B15: il10ra_site1_sap_14_mot_d910f416147260c93593610934442136_0001_000000186_0001_34_49_H_._HHH_b1_06970_af2_0001_0000200018_0000001_0_0001 (protein)
chain: SSSSSSSLREAYELVEEAFEIEDPQEVRELLEEALELAEENNSWAFHFSIRHALEALRSSSSSSS
B16: il10ra_site1_sap_24_mot_HHH_b1_07527_000000076_0001_1_15_H_._HHH_b1_08233_0001_0000200013_0000001_0_0001 (protein)
chain: SSSSDVLERSVEFALKAAEELAKAGDPEAARALLEVLFRLLEEAGDPELLREVEELLEELSSSSS
B17: il10ra_site1_sap_23_mot_HHH_b2_00441_000000147_0001_1_18_H_._HHH_b2_03827_0001_0000100005_0000003_0_0001_af2pred_dldesign_0_af2pred (protein)
chain: SLDDELAARAAELGVPAAELAALRAEARRLAGGDERAALVILARLLNEAGLPELARIVSRAFLSS
B18: il10ra_site1_sap_19_mot_HHH_b2_00093_af2_000000025_0001_40_54_H_._5ea7f752dde0811aa0a69b69c7e6f7e7_0001_af2_0001_0000400018_0000001_0_0001 (protein)
chain: SSSSDVSRRIYELSREAMELLREGNPEEAEEVAEEARELAEEANDRIMLVQVEFVLRQINSSSSS
B19: il10ra_site1_normal_mot_HHH_b1_01693_000000146_0001_1_17_H_._HHH_b1_05536_af2_0001_0000300019_0000002_0_af2pred_0001 (protein)
chain: SSSSDEEEREEAQELLEEAKKIEDPEEILQVLAEAAILAARANDEELLKEILKLIVEKLRSSSSS
B20: il10ra_site1_normal_mot_HHH_b2_04679_000000194_0001_21_38_H_._HHH_b2_06224_0001_0000200020_0000002_0 (protein)
chain: SSSSSDEEIREEVEELIKRLEEVDTQEAYELLREAIELARELNDPRLFELVFRAVQEWLHSSSSS
B21: il10ra_site1_sap_15_mot_b26a303360aa2756ef5b79665ce52f45_0001_000000179_0001_1_11_H_._HHH_b2_00874_0001_0000200028_0000002_0_0001 (protein)
chain: SSSSDEEERVLELLLQAAQAFIEGNPEEVEKLLEEAEELAKESNNPELEEAVETAQRIMRNSSSS
B22: il10ra_site1_normal_mot_HHH_b1_06029_000000174_0001_1_17_H_._HHH_b2_05210_0001_0000300024_0000001_0_af2pred_0001 (protein)
chain: SSSSSESEALFRSARELVELLLEEGNEERARRTLRLIIELLELLGDEELAKRLQELLEEISSSSS
B23: il10ra_site1_sap_23_mot_HHH_b2_04656_000000137_0001_41_56_H_._HHH_b1_03237_0001_0000100002_0000001_0_0001 (protein)
chain: SSSSNEEAQELFELLRELVEAVREGDEEAVEEIFEEIEKLAREANNRLALLQAEFALKLFNSSSS
B24: il10ra_site1_normal_mot_b26a303360aa2756ef5b79665ce52f45_0001_000000179_0001_1_11_H_._HHH_b1_05166_0001_0000200030_0000001_0_af2pred_0001 (protein)
chain: SSSSSLAEEIKRIVEEIAELLREGNPEEAEKLAEEAIREVEERGNEIAAFNLRHLLKIVRSSSSS

molecular target: il10ra, Q13651; test: yeast display titration

Binder | apparent Kd
B1 | inactive: no binding seen
B2 | inactive: no binding seen
B3 | inactive: no binding seen
B4 | inactive: no binding seen
B5 | inactive: no binding seen
B6 | inactive: no binding seen
B7 | inactive: no binding seen
B8 | inactive: no binding seen
B9 | inactive: no binding seen
B10 | inactive: no binding seen
B11 | inactive: no binding seen
B12 | inactive: no binding seen
B13 | inactive: no binding seen
B14 | inactive: no binding seen
B15 | inactive: no binding seen
B16 | inactive: no binding seen
B17 | inactive: no binding seen
B18 | inactive: no binding seen
B19 | inactive: no binding seen
B20 | inactive: no binding seen
B21 | inactive: no binding seen
B22 | inactive: no binding seen
B23 | inactive: no binding seen
B24 | inactive: no binding seen

Rewritten tab-delimited: entries from further up
Binder	apparent Kd
B12	inactive: no binding seen
B23	inactive: no binding seen

— publication PMC10163288
